Experimental data reported in ChEMBL document CHEMBL6182836 (RSC Med Chem, 2025).

Conditions: mouse, 24 h

COc1cc2c(cc1OC)C(=O)C(CC1CCN(Cc3ccccc3)CC1)C2 (stereo unspecified) [DONEPEZIL]
permeability: 78%
